Assay [1] concerns the target MBP-SUN1 α1 (MBP fusion of human SUN1 amino-acids 362–401) (human) (UniProt O94901). The experiment in a line: condition: only after over-night incubation with 10 mM EDTA; SEC-MALS; MBP-SUN1 α1 at 20 mg/mL after over-night incubation with 10 mM EDTA; Superdex 200 Increase 10/300 GL, 20 mM HEPES pH 7.5, 150 mM KCl, 2 mM DTT; both purified. (Size exclusion chromatography separates by hydrodynamic size, large species first.)

The target in assay [2] is MBP-SUN1 α1 C376A (human) (UniProt O94901). The experiment in a line: SEC-MALS; MBP-SUN1 α1 C376A at 5 mg/mL after purification, and after over-night incubation with 2 mM zinc acetate or 10 mM EDTA; Superdex 200 Increase 10/300 GL, 20 mM HEPES pH 7.5, 150 mM KCl, 2 mM DTT; both purified.

No constants are given. Whether binding was seen depends on the method and setting. Where a sequence is shown, tags or fusion partners need not be part of it.

This passage reports binding results from PMC10320395, “Molecular insights into LINC complex architecture through the crystal structure of a luminal trimeric coiled-coil domain of SUN1” (Frontiers in Cell and Developmental Biology, 2023).

B1: MBP-SUN1 α1 (MBP fusion of human SUN1 amino-acids 362–401) (domain or fragment, UniProt O94901 362-401, looked up)
chain: MSGVEQQVASLSGQCHHHGENLRELTTLLQKLQARVDQME
notes: human SUN1, Uniprot O94901, amino-acids 362–401 (α1 coiled-coil domain); The uncleaved His-MBP fusion from pMAT11, used to give greater molecular mass resolution in SEC-MALS; theoretical monomer 49 kDa; The His tag probably stays with the MBP (surmise); source: E. coli BL21 (DE3), purified (Ni-NTA, amylose, ion exchange); not shown: MBP, N-terminal, kept
In the case of B1, the binding result in assay [1] was “no binding”.

B2: MBP-SUN1 α1 C376A (domain or fragment, UniProt O94901 362-401)
chain: MSGVEQQVASLSGQAHHHGENLRELTTLLQKLQARVDQME
For B2, in assay [2], the binding result was “no binding (tested: 5 mg/mL)”.
